Measurements as given in PubChem BioAssay AID493014 (National Center for Advancing Translational Sciences (NCATS), 2011).
This is one part of the list. Further columns of the screen follow, without active or inactive calls. Compounds called inactive in the main read-out are mostly missing here. Potencies come from curve fits of mixed quality, noted in brackets.

Test: qHTS Assay to Find Inhibitors of Chronic Active B-Cell Receptor Signaling
Details: ABC-DLBCL IkBa-CBG/CBR reporter, luminescence ratio (green luciferase fused to IkBa over red control in TMD8 lymphoma cells), 4 h
Procedure, shortened: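 Concentration-response series (up to 46 uM) were applied to TMD8 dual-reporter cells for 4 h at 37C with doxycycline. Green/red ratio, after filter-overlap correction, defined %Activity; red signal alone was normalised to basal cells and zero luminescence.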

[1] = measured here: CBR red luminescence, cell number
[2] = measured here: IkBa-CBG green luminescence

| Compound | AC50 [1] | AC50 [2] |
| --- | --- | --- |
| CCOc1cc(/C=N/O)ccc1OCc1ccccc1F | 0.231 µM [rising, full curve] | 20.6 µM [falling, partial curve, poor fit] |
| Cc1nc(SCC(=O)N2CCc3ccccc3C2)c2c(C)c(C)sc2n1 | 8.2 µM [falling, partial curve, poor fit] |  |
| CCOc1ccccc1NC(=S)NNS(=O)(=O)c1c(C)cc(C)cc1C | 11.6 µM [falling, partial curve] |  |
| CC(=O)Nc1ccc2nc(-c3cccn3C)[nH]c2c1 | 17.8 µM [falling, partial curve, poor fit] |  |
| CCn1c(NC(=S)Nc2ccccc2)nc2ccccc21 | 22.4 µM [falling, single point] |  |
| Cc1sc2nc(CSCC(=O)Nc3c(F)cccc3F)[nH]c(=O)c2c1C | 29.1 µM [rising, single point] |  |
| CCOc1ccc(N(CC(=O)NCc2ccco2)C(=O)CCC(=O)Nc2ccccn2)cc1 | 0.1 µM [falling, full curve, poor fit] |  |
| CC(=O)c1ccc2noc(-c3cccc(F)c3)c2c1 | 35.5 µM [falling, single point] |  |
| COCCCNC(=O)c1ccccc1N(Cc1ccccc1)S(=O)(=O)c1ccccc1 | 15.8 µM [rising, partial curve, poor fit] |  |
| CN(C)C(CNC(=O)c1ccc(C2SCCS2)cc1)c1ccccc1 (stereo unspecified) | 7.08 µM [falling, full curve] |  |
| Brc1ccc(CSc2nnc(-c3ccco3)o2)cc1 | 4.11 µM [rising, full curve, poor fit] |  |
| Cc1cccc2sc(NC(=O)CN3C(=O)C4CC=CCC4C3=O)nc12 (stereo unspecified) | 7.94 µM [falling, partial curve, poor fit] |  |
| Cc1ccc(C)c(NC(NC(=O)c2cccnc2)C(Cl)(Cl)Cl)c1 (stereo unspecified) | 2.82 µM [rising, partial curve, poor fit] |  |
| CCOC(=O)C1=C(c2ccccc2)O/C(=C(/C(=O)OC)C(F)(F)F)S1 | 1.03 µM [falling, partial curve, poor fit] |  |
| COc1ccc2nc(C)c3cc(C)oc3c2c1 |  | 2.31 µM [falling, partial curve, poor fit] |
| O=C(Nc1nc2ccccc2s1)c1ccc(F)cc1 | 1.26 µM [falling, full curve] | 0.794 µM [rising, full curve, poor fit] |
| O=C(COC(=O)COc1ccc(Br)cc1)NC1CCCC1 | 6.51 µM [rising, full curve, poor fit] |  |
| N=c1c2c(-c3ccccc3)c(-c3ccccc3)n(Cc3ccco3)c2ncn1CCCn1ccnc1 | 20.6 µM [falling, single point] |  |
| Cc1cccc(-c2noc(-c3ccc(Cl)cc3[N+](=O)[O-])n2)c1 | 2.06 µM [rising, full curve, poor fit] |  |
| Cc1cccc(OCCCC(=O)N2CCCc3ccccc32)c1C | 29.1 µM [falling, partial curve, poor fit] |  |
| C=CCNc1nnc(SC2CC(=O)N(c3ccc(OCCC)cc3)C2=O)s1 (stereo unspecified) | 0.92 µM [falling, partial curve, poor fit] |  |

| Compound | AC50 [1] | AC50 [2] |
| --- | --- | --- |
| CCNC(C(=O)c1c[nH]c2c(CC)cccc12)c1ccccc1 (stereo unspecified) | 35.5 µM [falling, single point] |  |
| O=[N+]([O-])c1cccc(C(=Nc2ccccc2Cl)NO)c1 | 3.66 µM [rising, full curve, poor fit] |  |
| O=C(CCNS(=O)(=O)c1cccc2nonc12)NC1CCCc2ccccc21 (stereo unspecified) | 0.164 µM [rising, full curve, poor fit] |  |
| Oc1ccc(/C=N/Nc2ccc(C(F)(F)F)cn2)cc1 | 35.5 µM [falling, single point] |  |
| O=C(Nc1ccc(N2CCN(C(=O)c3ccccc3)CC2)cc1)c1ccc([N+](=O)[O-])o1 | 7.94 µM [falling, partial curve, poor fit] |  |
| Cc1ccc2oc(=O)c3cnn(CC(=O)N4CCN(c5ccccn5)CC4)c3c2c1 | 29.1 µM [rising, partial curve, poor fit] |  |
| COc1ccccc1N1CCN(/N=C/c2cc(OC)c(OC(C)=O)c(OC)c2)CC1 | 1.26 µM [rising, full curve, poor fit] |  |
| Cc1ccc(C(=O)NCCCc2ccccc2)c(Cl)c1 | 6.31 µM [rising, partial curve, poor fit] |  |
| Oc1ccccc1N=Cc1sc2ccccc2c1Cl | 13 µM [falling, partial curve] |  |
| O=C(Nc1ccc(Cl)cc1)N1CCC(c2nc(-c3ccc(F)cc3)no2)CC1 | 29.1 µM [falling, single point] |  |
| COc1ccc(-c2cn3c(C)c(C(=O)Nc4cccc(C)n4)sc3n2)cc1 | 1.64 µM [falling, full curve] |  |
| C=Cn1c(N2CCOCC2)nc2c1c(=O)[nH]c(=O)n2C | 32.6 µM [falling, single point] |  |
| CCN(CC)S(=O)(=O)c1ccc(NC(=O)c2ccccn2)cc1 | 29.1 µM [falling, single point] |  |
| Cc1cc(C)cc(-n2c(SCC(=O)NCc3ccco3)nc3ccccc3c2=O)c1 | 29.1 µM [rising, single point] |  |
| COc1ccccc1N1CCN(C(=O)CN(c2ccc(C)c(C)c2)S(C)(=O)=O)CC1 | 11.6 µM [rising, partial curve, poor fit] |  |
| Cc1cc(C2CCCCC2)n(O)c(=O)c1 | 29.1 µM [rising, single point] | 29.1 µM [falling, single point] |
| Cc1ccc(C)c(C(=O)COC(=O)c2n[nH]c3ccccc23)c1 | 16.4 µM [falling, single point] |  |
| COc1ccc(NC(=O)CNC(=O)c2nn(-c3ccc(OC)c(OC)c3)c(=O)c3ccccc23)c(OC)c1 | 17.8 µM [rising, partial curve, poor fit] |  |
| CCOC(=O)/C(N=O)=C(\O)C1CCN(C(=O)OCC)CC1 | 20.6 µM [falling, single point] |  |
| COc1ccccc1NC(=O)C(=O)NCC1CCCN1S(=O)(=O)c1cccs1 (stereo unspecified) | 1.84 µM [falling, full curve] |  |
| CCCN(CCC)CCCNC(=O)C1CCN(S(=O)(=O)CC)CC1 | 0.501 µM [falling, full curve, poor fit] |  |

Reprinted from the listing, 2 compounds:

| Compound | AC50 [1] | AC50 [2] |
| --- | --- | --- |
| COc1ccc(NC(=O)CNC(=O)c2nn(-c3ccc(OC)c(OC)c3)c(=O)c3ccccc23)c(OC)c1 | 17.8 µM [rising, partial curve, poor fit] |  |
| CCOC(=O)/C(N=O)=C(\O)C1CCN(C(=O)OCC)CC1 | 20.6 µM [falling, single point] |  |

Later entries:

| Compound | AC50 [1] | AC50 [2] |
| --- | --- | --- |
| COc1ccc(C)c2sc(N(Cc3cccnc3)C(=O)C3CCCCC3)nc12 | 17.8 µM [falling, single point] |  |
| Cc1c(O)c(S(=O)c2ccccc2)c(=O)n(-c2ccccc2)c1-c1ccccc1 (stereo unspecified) | 25.9 µM [falling, single point] |  |
| CCOC(=O)CCNC(=O)Nc1ccc2nc(C)n(Cc3ccc(Cl)cc3)c(=O)c2c1 | 35.5 µM [falling, single point] |  |
| COc1ccc(-c2cc(C(=O)NNC(=S)NC(=O)c3c(-c4ccccc4)noc3C)[nH]n2)cc1 | 35.5 µM [falling, single point] |  |
| CCC(C)N1CC(=O)N2C(c3ccc(OC)cc3OC)c3[nH]c4ccccc4c3C[C@H]2C1=O (stereo partly specified) | 5.62 µM [rising, single point] |  |
| OCCNCC(O)Cn1c2ccccc2c2ccccc21 (stereo unspecified) | 10 µM [rising, partial curve, poor fit] |  |
| COc1ccc(Cl)cc1C1=CC(=O)C[C@H](c2ccc(F)cc2)C1 | 25.9 µM [falling, single point] |  |
| Cc1ccc(C)c(Cn2nnc3c(=O)[nH]c(C4CCN(S(=O)(=O)c5ccc(S(=O)(=O)N(C)C)cc5)CC4)nc32)c1 | 20 µM [falling, single point] |  |
| S=C(NCc1ccncc1)Nc1ccc(Cl)cc1 | 1.46 µM [falling, partial curve, poor fit] |  |
| Cc1ccc(CN2C(=O)N/C(=C\c3cccn3-c3cccc(C(=O)O)c3)C2=O)cc1 | 11.2 µM [falling, partial curve, poor fit] |  |
| COc1ccc(NC(=O)CN(c2ccc(OC)c(Cl)c2)S(=O)(=O)c2ccccc2)c(OC)c1 | 6.31 µM [rising, single point] |  |
| Cn1cnc([N+](=O)[O-])c1Oc1cccc2ccccc12 | 14.6 µM [falling, partial curve, poor fit] |  |
| Clc1cnc(N/N=C/c2ccncc2)c(Cl)c1 | 1 µM [rising, partial curve] |  |
| O=C(CCl)NNc1nc(-c2ccccc2)c2cc(Cl)ccc2n1 | 22.4 µM [falling, single point] |  |
| Cc1ccc(CNC(=O)c2ccccc2NS(=O)(=O)c2ccc(Cl)nc2)cc1 | 1 µM [rising, partial curve, poor fit] |  |
| CC(C)(C)C(=O)Oc1cc(N)n(S(=O)(=O)c2ccccc2)n1 | 29.1 µM [falling, single point] |  |
| CCCn1c(NC(=O)C2COc3ccccc3O2)nc2ccccc21 (stereo unspecified) | 0.291 µM [rising, full curve, poor fit] |  |
| CC(=O)NS(=O)(=O)c1ccc(N=c2ssc3c2-c2cc(C)c(C)cc2NC3(C)C)cc1 | 5.17 µM [falling, partial curve] |  |
| O=C(Nc1nc2ccccc2[nH]1)c1cc(F)cc(F)c1 | 2.24 µM [falling, full curve] |  |
| Nc1c(N(Cc2ccco2)C(=O)c2cccc(Cl)c2)c(=O)[nH]c(=O)n1Cc1ccccc1 | 0.92 µM [falling, full curve] |  |
| CCCCn1c(-c2ccc(Cl)c(Cl)c2)nc2cc3[nH]c(=O)c(C(C)C)nc3cc21 | 12.6 µM [falling, single point] |  |
